Assay results taken from patent publication US20170267762A1.
These are yes or no findings as the source states them, for the method shown. Some binding calls cover weakened binding; strength is not graded here.

By UniProt entry, the sequences of proteins in these tests, tags left out. Residues count along the entry.
UniProt Q15116, residues 25-167: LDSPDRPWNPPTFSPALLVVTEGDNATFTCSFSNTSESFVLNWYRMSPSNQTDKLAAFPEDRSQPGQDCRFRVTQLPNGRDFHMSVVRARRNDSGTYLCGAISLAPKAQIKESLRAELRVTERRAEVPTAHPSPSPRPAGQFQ

Molecular target: human PD-1 (construct not stated) (human) (UniProt Q15116)
Test: Biacore 3000, antibody captured, PD-1 analyte

Row | binding | Binder
1 | binds | humanized 7A4 (isotype not stated) (antibody, V domains shown) VH: QIQLVQSGSELKKPGASVKVSCKASGYTFTNFGMNWVRQAPGQGLKWMGWISGYTREPTYAADFKGRFVISLDTSVSTAYLQISSLKAEDTAVYYCARDVFDYWGQGTLVTVSS VL: DIVLTQSPASLAVSPGQRATITCRASESVDNYGYSFMNWFQQKPGQPPKLLIYRASNLESGVPARFSGSGSRTDFTLTINPVEANDTANYYCQQSNADPTFGQGTKLEIK
2 | binds | humanized 7A4D-hIgG4 (antibody, V domains shown) VH: QIQLVQSGSELKKPGASVKVSCKASGYTFTNFGMNWVRQAPGQGLKWMGWISGYTREPTYAADFKGRFVISLDTSVSTAYLQISSLKAEDTAVYYCARDVFDYWGQGTLVTVSS VL: DIVLTQSPASLAVSPGQRATITCRASESVDNYGYSFMNWFQQKPGQPPKLLIYRASNLESGVPARFSGSGSRTDFTLTINPVEADDTANYYCQQSNADPTFGQGTKLEIKR
3 | binds | humanized 13F1 (isotype not stated) (antibody, V domains shown) VH: QVQLQESGPGLVKPSQTLSLTCTVSGYSISSDYAWNWIRQPPGKGLEWMAYISYSGYTSYNPSLKSRITISRDTSKNQFSLKLSSVTAADTAVYYCARSLDYDYGTMDYWGQGTLVTVSS VL: EIVLTQSPATLSLSPGERATLSCRANSSVSSMHWYQQKPGQSPEPWIYAISNLAFGVPARFSGSGSGTDYTLTISSLEPEDFAVYYCQQWSSRPPTFGQGTKLEIK
